Test results from article PMC8080724.
No constants are given. Whether binding was seen depends on the method and setting. In cells and extracts the contact can be indirect. Some entries that bind do so weakly or less than the wild type. Tags and fused reporters may be left off the sequences shown.

Chains of the proteins cited; added tags and fusions are not shown.
UniProt P49841: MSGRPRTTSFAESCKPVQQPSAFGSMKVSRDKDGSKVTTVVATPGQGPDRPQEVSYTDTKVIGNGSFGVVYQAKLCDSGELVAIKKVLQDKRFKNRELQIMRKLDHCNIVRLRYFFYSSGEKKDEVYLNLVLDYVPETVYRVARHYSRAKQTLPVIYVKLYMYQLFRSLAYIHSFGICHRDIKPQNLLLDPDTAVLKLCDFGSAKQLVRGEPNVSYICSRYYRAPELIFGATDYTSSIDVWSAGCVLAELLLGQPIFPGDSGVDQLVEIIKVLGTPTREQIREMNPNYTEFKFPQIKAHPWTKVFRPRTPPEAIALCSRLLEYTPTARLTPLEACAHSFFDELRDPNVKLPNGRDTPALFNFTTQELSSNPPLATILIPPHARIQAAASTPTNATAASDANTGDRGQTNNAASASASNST
UniProt P18266: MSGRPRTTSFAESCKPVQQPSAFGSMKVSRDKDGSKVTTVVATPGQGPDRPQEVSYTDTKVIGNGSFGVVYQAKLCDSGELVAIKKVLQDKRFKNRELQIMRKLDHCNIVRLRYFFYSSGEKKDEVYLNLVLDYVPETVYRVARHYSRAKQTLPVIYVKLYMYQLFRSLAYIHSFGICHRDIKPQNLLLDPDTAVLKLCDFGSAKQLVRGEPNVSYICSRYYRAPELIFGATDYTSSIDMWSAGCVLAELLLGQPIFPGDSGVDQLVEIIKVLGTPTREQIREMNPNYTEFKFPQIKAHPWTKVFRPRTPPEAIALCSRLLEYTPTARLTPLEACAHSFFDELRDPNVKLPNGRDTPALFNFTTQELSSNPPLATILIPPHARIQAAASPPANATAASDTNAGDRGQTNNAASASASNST

Legend:
[1] = biological target: T1, HA-ULK1 F2 (GABARAP-binding region within the Serine/Proline-Rich Domain, 279–430) (mouse) (UniProt O70405); assay: co-IP; HA-ULK1 truncation mutants expressed in HEK293 cells, precipitated with anti-HA antibody, blot for endogenous GSK3B
T1 sequence: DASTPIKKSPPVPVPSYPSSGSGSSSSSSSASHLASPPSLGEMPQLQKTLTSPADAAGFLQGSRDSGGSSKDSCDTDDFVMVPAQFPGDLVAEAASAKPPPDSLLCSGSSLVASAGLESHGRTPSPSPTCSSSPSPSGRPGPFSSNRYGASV

[2] = biological target: T2, HA-tagged full-length ULK1 WT (mouse) (UniProt O70405); assay: proximity ligation; fixed HCN cells transfected with HA-ULK1, primary antibodies against HA-tag and GSK3B, after insulin withdrawal; PLA dots per cell counted
T2 sequence: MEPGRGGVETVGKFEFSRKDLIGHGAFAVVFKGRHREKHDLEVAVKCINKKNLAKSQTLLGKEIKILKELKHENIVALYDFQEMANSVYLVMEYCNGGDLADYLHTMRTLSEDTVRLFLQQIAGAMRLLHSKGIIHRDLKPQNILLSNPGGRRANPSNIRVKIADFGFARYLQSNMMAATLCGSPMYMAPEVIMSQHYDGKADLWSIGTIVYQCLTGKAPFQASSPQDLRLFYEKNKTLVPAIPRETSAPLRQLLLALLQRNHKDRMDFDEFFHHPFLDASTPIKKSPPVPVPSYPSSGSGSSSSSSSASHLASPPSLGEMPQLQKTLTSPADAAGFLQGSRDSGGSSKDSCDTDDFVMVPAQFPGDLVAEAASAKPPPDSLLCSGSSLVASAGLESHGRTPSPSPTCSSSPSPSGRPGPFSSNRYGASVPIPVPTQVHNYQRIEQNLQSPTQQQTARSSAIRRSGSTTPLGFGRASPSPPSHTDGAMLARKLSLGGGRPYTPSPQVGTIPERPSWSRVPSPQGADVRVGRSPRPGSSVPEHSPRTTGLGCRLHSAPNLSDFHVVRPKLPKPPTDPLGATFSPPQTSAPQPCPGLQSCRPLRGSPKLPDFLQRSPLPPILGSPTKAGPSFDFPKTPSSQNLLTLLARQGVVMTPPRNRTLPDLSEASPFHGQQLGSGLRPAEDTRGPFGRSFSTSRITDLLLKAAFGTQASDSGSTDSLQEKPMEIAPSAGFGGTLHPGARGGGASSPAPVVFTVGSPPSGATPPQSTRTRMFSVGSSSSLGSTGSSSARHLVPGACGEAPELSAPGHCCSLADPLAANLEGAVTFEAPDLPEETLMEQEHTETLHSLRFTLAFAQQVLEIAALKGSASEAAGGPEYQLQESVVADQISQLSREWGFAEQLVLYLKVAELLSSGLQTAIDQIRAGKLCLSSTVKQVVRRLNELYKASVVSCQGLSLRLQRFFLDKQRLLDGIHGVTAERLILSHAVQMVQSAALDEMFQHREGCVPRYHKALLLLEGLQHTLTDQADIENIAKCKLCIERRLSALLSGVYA

Substance | binding [1] | binding [2]
glycogen synthase kinase 3 beta (GSK3B), endogenous in HEK293 cells (from UniProt P49841 1-420) (enzyme) | binds | 
glycogen synthase kinase 3 beta (GSK3B), endogenous in rat HCN cells (from UniProt P18266 1-420) (enzyme) |  | binds
